# Screening data

Data taken from PubChem BioAssay AID1159506, deposited by NCATS (2015).

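Luminescence from an EWS-FLI1 target-promoter (NR0B1) reporter, set against a CMV-promoter reporter, two days after silencing single genes in TC32 Ewing sarcoma cells.
Each siRNA was applied at 20 nM.
A z-score of the log NR0B1-over-CMV signal, less the median of siRNAs with the same seed; more negative means a stronger specific loss of the NR0B1 reporter.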

This is part of the screen; most of the strongest results are not listed here.
Sequences are the guide (antisense) strand, without overhang.

| # | siRNA | gene | seed-corrected z-score |
|---|---|---|---|
| 1 | `AAAUGAUUGGUUAGUGUCC` | TAS2R7 | 1.116 |
| 2 | `UAUUUUCUGCAAACCAUCA` | C2orf74 | 0.7029 |
| 3 | `UGAGUCGUAAUGACCCUGC` | PAX9 | -0.1245 |
| 4 | `UAUCCCGCAGCACUUUUCG` | HIST1H4B | -0.0386 |
| 5 | `UGAUUUCAGCUGUUCAAUC` | EMB | 0.4846 |
| 6 | `UCUUUGUACAUACACCAUC` | ZNF543 | 0.6492 |
| 7 | `UUCUCGUAAAGCUAGCCGC` | ZFYVE16 | -1.122 |
| 8 | `UAUCAGAUUCCAUAUCUUG` | SKAP2 | 0.1742 |
| 9 | `UCAAAGUCCACCUUUCCGC` | CABP2 | -0.7531 |
| 10 | `AGUGUAAUAAGUGUAGAUG` | KCNT2 | -0.9412 |
| 11 | `ACUUCGAAUAUUAAGAUUC` | XIAP | 0.4122 |
| 12 | `UCUUCCGUAACCUUAGAGC` | MCOLN2 | -0.69 |
| 13 | `AACGGAACUGGAGGUUUCC` | UBA2 | -0.0816 |
| 14 | `UGACUUUCUCCUUUAGGGC` | MAT2A | -0.6326 |
| 15 | `AAUGAUGUUGUUGCAAUCG` | PRRT4 | 0.8733 |
| 16 | `AUACUUCUCCAUAUCGGCC` | BMPR1A | 0.1279 |
| 17 | `UUUAGUAUCUGGAAAGACC` | SMPDL3B | 0.3784 |
| 18 | `UAAAUAACUGUGACCUCCA` | PRR35 | 0.352 |
| 19 | `UUAGUCUAGAUAUGAAGCC` | APOBEC3A | 0.5969 |
| 20 | `UUUUCUAUCAGGUUUAGUG` | SEC61G | 1.771 |
| 21 | `UCUUCUCUAAGUCUAGGUC` | LOC729316 | -0.3552 |
| 22 | `UCUCGGAUGAAUACUCGAC` | DHX57 | 0.4651 |
| 23 | `AUAUGUACAUUUACCCAUC` | KCNIP4 | -1.102 |
| 24 | `UACUGUAACAAGGAGAUUG` | FAM60A | -0.3858 |
| 25 | `UGCUAUACCAUAUGUAUGC` | DDX20 | -0.3081 |
| 26 | `AAUCUUCUAAAUAUAGCUC` | NUDT19 | 0.3812 |
| 27 | `UUAAGUUUUGCCCACCUGG` | VN1R4 | 0.3377 |
| 28 | `UUCUCGUAAAGAGAGCUCC` | SHROOM3 | 0.3298 |
| 29 | `UUUGAGAUUGGUGUCAUCA` | TSSK4 | -0.2122 |
| 30 | `UUCUGGAUCAUCGCAGUUC` | AHSG | 0.2728 |
| 31 | `UAAGUGAUGUCAAGUUUUG` | CHCHD2P10 | 0.6881 |
| 32 | `AAUGUUGGAAAUACCACCC` | CCT4 | 0.2999 |
| 33 | `AUUGCGAAGAGAACAAAUG` | OR5H1 | 0.5024 |
| 34 | `UUCAGUCGGAUAACAAUCC` | LRP6 | 0.09151 |
| 35 | `UGAUCUUAAAGAACAACUC` | RMI1 | -1.112 |
| 36 | `AUAGUAAUUGUUGGAGAGC` | NDUFA7 | -1.385 |
| 37 | `UUAGCUUGGAAACUGAUUG` | OSER1 | 1.552 |
| 38 | `AACUUUUCAACACUGUAUC` | CST7 | 0.6735 |
| 39 | `UUUAGACCAACAACGAGUC` | MAP3K7 | 0.864 |